The text below walks through data of patent US20190374627A1, “TARGET PEPTIDES FOR CANCER THERAPY AND DIAGNOSTICS” (priority 2016, published 2019).

The subject of this data set is HCC tumor tissue, adjacent liver tissue, HepG2 cells. The data set is described as follows: Identification of MHC class I-bound phosphopeptides by W6/32 immunoprecipitation, IMAC and HPLC-ESI-MS/MS. Details: species or system human. Conditions: for Found on: sample (HCC tumor T, adjacent liver N, HepG2) on which the phosphopeptide was identified; for Found on other cancers: other malignancies on which the MHC-I-pP was also identified; for Copies/cell: presentation of HCC-associated HLA-A*0201-restricted MHC-I-pP per cell.

On to “RLLsPQQPAL: MEF2D phosphopeptide, HLA-B*0702 (RLLSPQQPAL; phosphoserine; (4)...(4) The amino acid at this position is optionally phosphorylated; listed as Homo sapiens)”, for which the Found on result is “LL370T”.
Take “RLSsPLHFV: FAM134A phosphopeptide, HLA-A*0201 (RLSSPLHFV; phosphoserine; (4)...(4) The amino acid at this position is optionally phosphorylated; listed as Homo sapiens)”: the “Found on other cancers” value is “CRC, Melanoma, Hematological Ca” and the Copies/cell is 0.3 - 1 Copies/cell.
With “RPAsAGAmL: MEF2D phosphopeptide, HLA-B*0702 (RPASAGAML; phosphoserine; oxidized methionine; (4)...(4) The amino acid at this position is optionally phosphorylated; listed as Homo sapiens)”, the Found on entry is on record as “LL4857T”.
In the case of “RPAsPGPSL: MICALL2 phosphopeptide, HLA-B*0702 (RPASPGPSL; phosphoserine; (4)...(4) The amino acid at this position is optionally phosphorylated; listed as Homo sapiens)”, the Found on entry was “LL4857T”.
With “RPDVAKRLsL: BCAR3 phosphopeptide, HLA-B*0702 (RPDVAKRLSL; phosphoserine; (9)...(9) The amino acid at this position is optionally phosphorylated; listed as Homo sapiens)”, the Found on result was “LL4857T”.
Same read-out and setting: next, “RPDsPTRPTL: MICAL3 phosphopeptide, HLA-B*0702 (RPDSPTRPTL; phosphoserine; (4)...(4) The amino acid at this position is optionally phosphorylated; listed as Homo sapiens)”: “LL4857T”.
For “RPIsPRIGAL: EPN1 phosphopeptide, HLA-B*0702 (RPISPRIGAL; phosphoserine; (4)...(4) The amino acid at this position is optionally phosphorylated; listed as Homo sapiens)”, the Found on entry is on record as “LL4857T”.
As to “RPRAAtVV: PRKAR1A phosphopeptide, HLA-B*0702 (RPRAATVV; phosphothreonine; (6)...(6) The amino acid at this position is optionally phosphorylated; listed as Homo sapiens)”, the Found on result is “LL4857T”.
As to “RPRsAVLL: AKAP13 phosphopeptide, HLA-B*0702 (RPRSAVLL; phosphoserine; (4)...(4) The amino acid at this position is optionally phosphorylated; listed as Homo sapiens)”, the Found on entry is “LL4857N + T”.
Take “RQAsIELPSMAV: LSP1 phosphopeptide, HLA-A*0201”: the “Found on other cancers” value is on record as “CRC, Hematological Ca” and the Copies/cell worked out at 0.1 Copies/cell.
Take “RQDsTPGKVFL: NR2C1 phosphopeptide, HLA-A*0201 (RQDSTPGKVFL; phosphoserine; (4)...(4) The amino acid at this position is optionally phosphorylated; listed as Homo sapiens)”: the “Found on other cancers” value was “Ovarian Ca, CRC, Melanoma,” and the Copies/cell is listed as 1.1 - 8.4 Copies/cell.
In the case of “RQLsSGVSEI: HSPB1 phosphopeptide, HLA-A*0201 (RQLSSGVSEI; phosphoserine; (4)...(4) The amino acid at this position is optionally phosphorylated; listed as Homo sapiens)”, the “Found on other cancers” value is “Ovarian Ca, Melanoma, Hematological” and the Copies/cell is given as 0.9 Copies/cell.
As to “RRDsLQKPGL: MHC-I-pP identified for serine/threonine protein kinases LATS1 and LATS2 (RRDSLQKPGL; phosphoserine; (4)...(4) The amino acid at this position is optionally phosphorylated; listed as Homo sapiens)”, the Found on result is on record as “LL981T”.
As for “RRPsLLSEF (RRPSLLSEF; phosphoserine; (4)...(4) The amino acid at this position is optionally phosphorylated; listed as Homo sapiens)”, the Found on result is recorded as “LL981N + T”.
On the same count and under the same terms, for “RRPsYTLGM (RRPSYTLGM; phosphoserine; (4)...(4) The amino acid at this position is optionally phosphorylated; listed as Homo sapiens)” the value was “LL370T”; for “RRSFsLE (RRSFSLE; phosphoserine; (5)...(5) The amino acid at this position is optionally phosphorylated; listed as Homo sapiens)”, “LL370T”.
Consider “RSDsYVEL: TP53BP1 phosphopeptide, HLA-C*05 (RSDSYVEL; phosphoserine; (4)...(4) The amino acid at this position is optionally phosphorylated; listed as Homo sapiens)”, for which the Found on entry is reported as “LL4857T”.
“RSYsYPRQK (RSYSYPRQK; phosphoserine; (4)...(4) The amino acid at this position is optionally phosphorylated; listed as Homo sapiens)”: the Found on result is “LL4857T”.
On to “RTFsPTYGL: SYNM phosphopeptide, HLA-A*0201 (RTFSPTYGL; phosphoserine; (4)...(4) The amino acid at this position is optionally phosphorylated; listed as Homo sapiens)”, for which the “Found on other cancers” value is reported as “Ovarian Ca, Melanoma, OEAC” and the Copies/cell is on record as 0.3 - 6.8 Copies/cell.
“RTHsLLLLL (RTHSLLLLL; phosphoserine; (4)...(4) The amino acid at this position is optionally phosphorylated; listed as Homo sapiens)”: the “Found on other cancers” value is listed as “Ovarian Ca, CRC, OEAC, Hematological” and the Copies/cell was 1-32 Copies/cell.
For “RVAsPTSGV: IRS2 phosphopeptide, HLA-A*0201 (RVASPTSGV; phosphoserine; (4)...(4) The amino acid at this position is optionally phosphorylated; listed as Homo sapiens)”, the “Found on other cancers” value is “Ovarian Ca,” and the Copies/cell is recorded as 0.4 - 0.8 Copies/cell.
As to “SARRtPVSY (SARRTPVSY; phosphothreonine; (5)...(5) The amino acid at this position can be phosphorylated; listed as Homo sapiens)”, the Found on entry is “LL981T”.
Same read-out and setting: for “SIDsPQKL: TP53BP1 phosphopeptide, HLA-C*05 (SIDSPQKL; phosphoserine; (4)...(4) The amino acid at this position is optionally phosphorylated; listed as Homo sapiens)” the value was “LL4857T”.
As to “SImsPEIQL: CIC phosphopeptide, HLA-A*0201 (SIMSPEIQL; phosphoserine; oxidized methionine; (4)...(4) The amino acid at this position is optionally phosphorylated; listed as Homo sapiens)”, the “Found on other cancers” value is “Ovarian Ca” and the Copies/cell was found to be 0.25 Copies/cell.
On to “SMTRsPPRV: SRSF8 phosphopeptide, HLA-A*0201 (SMTRSPPRV; phosphoserine; (5)...(5) The amino acid at this position is optionally phosphorylated; listed as Homo sapiens)”, for which the “Found on other cancers” value was “Ovarian Ca,”, the Copies/cell was 14 Copies/cell and the Found on entry is “HepG2”.
For the substance “SPRRsRSISL (SPRRSRSISL; phosphoserine; (5)...(5) The amino acid at this position is optionally phosphorylated; listed as Homo sapiens)”, the Found on entry is given as “LL4857T”.
On the same count and under the same terms, next, “SRFNRRVsV (SRFNRRVSV; phosphoserine; (8)...(8) The amino acid at this position is optionally phosphorylated; listed as Homo sapiens)”: “LL981T”; “TPRsPPLGLI: MAP3K11 phosphopeptide, HLA-B*0702 (TPRSPPLGLI; phosphoserine; (4)...(4) The amino acid at this position is optionally phosphorylated; listed as Homo sapiens)”: “LL4857T”; “TRKtPESFL: EPN1 phosphopeptide, HLA-C*06 (TRKTPESFL; phosphothreonine; (4)...(4) The amino acid at this position is optionally phosphorylated; listed as Homo sapiens)”: “LL981T”.
The same measure, in the same setting: for “VLLsPVPEL: ANAPC1 phosphopeptide, HLA-A*0201 (VLLSPVPEL; phosphoserine; (4)...(4) The amino acid at this position is optionally phosphorylated; listed as Homo sapiens)” the value was “HepG2”.
“VMIGsPKKV: TNS3 phosphopeptide, HLA-A*0201 (VMIGSPKKV; phosphoserine; (5)...(5) The amino acid at this position is optionally phosphorylated; listed as Homo sapiens)”: the “Found on other cancers” value is given as “Ovarian Ca,” and the Copies/cell was 2-3 Copies/cell.
Turning to “YPLsPTKISQY: HIPK1 phosphopeptide, HLA-A*01 (YPLSPTKISQY; phosphoserine; (4)...(4) The amino acid at this position is optionally phosphorylated; listed as Homo sapiens)”, the Found on entry is listed as “HepG2”.
